PubChem BioAssay AID504744, Drosophila RNAi Screening Center | 2011

- Aim: 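Uncover factors, including feedback loops, that control dAkt activation in fly cells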 (primary screen)
- System: Drosophila Kc167 cells
- Knock-down reagent: long dsRNA against Drosophila genes, 250 ng dsRNA per well of a 384-well plate
- Time to read-out: 3 days of knock-down, then overnight serum-free starvation before stimulation
- Challenge: bovine insulin at 387 nM for 10 minutes after 12 h without serum
- Measured: 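Per-well phospho-dAkt level from an in-cell fluorescent antibody stain, divided by a DNA-dye signal; log2 residuals turned into z-scores that take cell number into account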
- Call rule: 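Hit in the insulin screen when the two-replicate mean z-score is more extreme than plus or minus 2.5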
The screen tested about 23,000 reagents; shown is a random part of those that have a named target and a result. In the full data, 98 (0.43%) were called active. 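Only hit calls are given; the phospho-dAkt signals, z-scores and hit direction were not deposited.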 The numbers tell different reagents against one gene apart. Names joined by + are all predicted targets of the reagent.

Gene,reagent,Call
ND-PDSW,1,inactive
smog,1,inactive
smog,2,inactive
CysRS,1,inactive
Sry-delta,1,inactive
CG12581,1,inactive
CG12581,2,inactive
CG12299,1,inactive
CG16964,1,inactive
CG5568,1,inactive
CG5568,2,inactive
Dhc64C,1,inactive
Srp54,1,inactive
CG14024,1,inactive
CG14024,2,inactive
CG31128,1,inactive
obst-A,1,inactive
CG7548,1,inactive
TwdlF,1,inactive
hang,1,inactive
hang,2,inactive
Bap60,1,inactive
CG1738,1,inactive
mus81,1,inactive
mus81,2,inactive
CG3793,1,inactive
SP2353,1,inactive
CG5510,1,inactive
ste24c + CG30461,1,inactive
ste24c + CG30461,2,inactive
CG13102,1,inactive
CG15406,1,inactive
eIF3k,1,inactive
Alk,1,inactive

Looked up above:
Value of CysRS in “Call”: inactive
Entry of ste24c + CG30461 #2 in “Call”: inactive
smog #1, Call = inactive
Under “Call”, Dhc64C is entered as inactive
CG12299, Call: inactive

The list goes on.
Gene,reagent,Call
Hacl,1,inactive
CG1137,1,inactive
pyd,1,inactive
pyd,2,inactive
pyd,3,inactive
pyd,4,inactive
pyd,5,inactive
pyd,6,inactive
pyd,7,inactive
pyd,8,inactive
CG32444,1,inactive
dmrt11E,1,inactive
CG6686,1,inactive
robl22E,1,inactive
DhpD,1,inactive
CG6800,1,inactive
Naa40,1,inactive
pcm,1,inactive
Acbp3,1,inactive
Skadu,1,inactive
Usp30,1,inactive
oaf,1,inactive
BBS9,1,inactive
Pgant3,1,inactive
dikar,1,inactive
dikar,2,inactive
CG42512 + CG32573,1,inactive
CG42512 + CG32573,2,inactive
CG42512 + CG32573,3,inactive
CG4115,1,inactive
